Measurements from publication PMC11847914.
Results are given in words; binding and its absence hold for the method and conditions named. In cells and extracts the contact can be indirect. Some binding calls cover weakened binding; strength is not graded here.

The chains behind the UniProt entries cited, without tags or fusion partners.
UniProt O95931: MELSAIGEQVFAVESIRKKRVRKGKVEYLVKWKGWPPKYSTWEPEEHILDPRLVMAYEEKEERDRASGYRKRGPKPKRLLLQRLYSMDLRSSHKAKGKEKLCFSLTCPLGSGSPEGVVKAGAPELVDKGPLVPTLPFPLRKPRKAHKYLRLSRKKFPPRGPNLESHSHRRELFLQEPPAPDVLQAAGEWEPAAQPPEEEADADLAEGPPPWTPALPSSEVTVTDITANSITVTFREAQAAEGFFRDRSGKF
UniProt P35579: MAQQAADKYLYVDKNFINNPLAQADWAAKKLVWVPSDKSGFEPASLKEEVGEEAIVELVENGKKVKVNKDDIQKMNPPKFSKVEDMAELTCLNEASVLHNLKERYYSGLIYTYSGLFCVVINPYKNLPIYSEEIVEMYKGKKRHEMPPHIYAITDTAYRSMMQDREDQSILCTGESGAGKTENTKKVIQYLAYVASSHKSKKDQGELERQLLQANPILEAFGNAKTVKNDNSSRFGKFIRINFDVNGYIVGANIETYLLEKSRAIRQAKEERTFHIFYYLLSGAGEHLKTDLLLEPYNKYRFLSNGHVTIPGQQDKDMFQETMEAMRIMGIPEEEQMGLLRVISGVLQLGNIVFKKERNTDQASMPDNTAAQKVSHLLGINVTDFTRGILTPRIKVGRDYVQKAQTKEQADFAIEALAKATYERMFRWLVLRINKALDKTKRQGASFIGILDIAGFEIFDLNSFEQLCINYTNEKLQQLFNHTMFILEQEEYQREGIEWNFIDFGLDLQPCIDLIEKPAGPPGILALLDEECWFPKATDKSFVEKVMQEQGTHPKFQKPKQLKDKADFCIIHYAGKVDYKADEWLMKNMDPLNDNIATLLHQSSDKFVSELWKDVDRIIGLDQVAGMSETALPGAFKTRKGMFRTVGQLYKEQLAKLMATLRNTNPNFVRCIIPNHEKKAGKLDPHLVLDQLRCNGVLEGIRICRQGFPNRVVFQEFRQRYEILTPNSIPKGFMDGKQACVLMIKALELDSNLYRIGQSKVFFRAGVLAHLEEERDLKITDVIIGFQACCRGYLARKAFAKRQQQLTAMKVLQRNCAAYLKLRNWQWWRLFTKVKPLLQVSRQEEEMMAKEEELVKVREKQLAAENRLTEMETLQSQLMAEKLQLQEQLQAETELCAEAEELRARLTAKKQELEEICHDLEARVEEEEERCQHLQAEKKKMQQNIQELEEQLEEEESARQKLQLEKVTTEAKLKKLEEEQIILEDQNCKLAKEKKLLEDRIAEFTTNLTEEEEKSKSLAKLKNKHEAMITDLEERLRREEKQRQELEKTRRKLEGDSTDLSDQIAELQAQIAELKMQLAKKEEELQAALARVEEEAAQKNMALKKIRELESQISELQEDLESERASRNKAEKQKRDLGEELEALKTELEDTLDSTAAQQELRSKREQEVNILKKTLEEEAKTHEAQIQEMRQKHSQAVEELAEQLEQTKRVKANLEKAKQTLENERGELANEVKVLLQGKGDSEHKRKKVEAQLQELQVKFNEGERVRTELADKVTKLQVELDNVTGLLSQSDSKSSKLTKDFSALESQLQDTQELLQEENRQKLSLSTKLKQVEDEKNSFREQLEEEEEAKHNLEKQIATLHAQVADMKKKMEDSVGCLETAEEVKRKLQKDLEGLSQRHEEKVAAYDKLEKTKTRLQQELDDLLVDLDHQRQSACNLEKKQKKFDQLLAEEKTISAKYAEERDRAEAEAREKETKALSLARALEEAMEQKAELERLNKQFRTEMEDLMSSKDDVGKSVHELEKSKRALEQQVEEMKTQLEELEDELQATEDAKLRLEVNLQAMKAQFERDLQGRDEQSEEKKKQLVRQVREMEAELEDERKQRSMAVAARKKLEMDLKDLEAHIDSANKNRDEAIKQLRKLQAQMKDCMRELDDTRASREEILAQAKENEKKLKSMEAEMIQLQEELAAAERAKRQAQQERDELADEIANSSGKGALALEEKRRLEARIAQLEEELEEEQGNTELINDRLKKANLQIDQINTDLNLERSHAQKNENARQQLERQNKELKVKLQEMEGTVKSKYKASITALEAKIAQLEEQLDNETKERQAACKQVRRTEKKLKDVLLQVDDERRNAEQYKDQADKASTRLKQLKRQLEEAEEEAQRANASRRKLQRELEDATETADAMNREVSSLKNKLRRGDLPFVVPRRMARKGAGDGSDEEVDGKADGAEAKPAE

Tests used:
[1] = target: Flag-tagged Chromobox protein homolog 7 (CBX7), co-transfected with HA-MYH9 (human) (UniProt O95931); assay: co-IP; co-transfection of Flag-CBX7 and HA-MYH9 (293T cells by the text, U251 and LN229 by the legend); whole-cell lysates precipitated with anti-Flag or anti-HA antibodies and protein A/G microbeads, western blotting
[2] = target: Chromobox protein homolog 7 (CBX7), endogenous (human (endogenous in U251 and LN229)) (UniProt O95931); assay: co-IP; endogenous proteins in U251 and LN229 cells; IP with anti-CBX7 or anti-MYH9 antibodies, western blotting

binding [1]	binding [2]	Substance
binds	–	HA-tagged myosin heavy chain 9 (MYH9) (from UniProt P35579 1-1960)
–	binds	myosin heavy chain 9 (MYH9), endogenous (from UniProt P35579 1-1960)
